{
  "sequences": {"note": "By UniProt entry, the sequences of proteins in these tests, tags left out. Where a name states a change or a piece, a line headed by the entry shows the natural chain unless it says otherwise.", "UniProt P20594": "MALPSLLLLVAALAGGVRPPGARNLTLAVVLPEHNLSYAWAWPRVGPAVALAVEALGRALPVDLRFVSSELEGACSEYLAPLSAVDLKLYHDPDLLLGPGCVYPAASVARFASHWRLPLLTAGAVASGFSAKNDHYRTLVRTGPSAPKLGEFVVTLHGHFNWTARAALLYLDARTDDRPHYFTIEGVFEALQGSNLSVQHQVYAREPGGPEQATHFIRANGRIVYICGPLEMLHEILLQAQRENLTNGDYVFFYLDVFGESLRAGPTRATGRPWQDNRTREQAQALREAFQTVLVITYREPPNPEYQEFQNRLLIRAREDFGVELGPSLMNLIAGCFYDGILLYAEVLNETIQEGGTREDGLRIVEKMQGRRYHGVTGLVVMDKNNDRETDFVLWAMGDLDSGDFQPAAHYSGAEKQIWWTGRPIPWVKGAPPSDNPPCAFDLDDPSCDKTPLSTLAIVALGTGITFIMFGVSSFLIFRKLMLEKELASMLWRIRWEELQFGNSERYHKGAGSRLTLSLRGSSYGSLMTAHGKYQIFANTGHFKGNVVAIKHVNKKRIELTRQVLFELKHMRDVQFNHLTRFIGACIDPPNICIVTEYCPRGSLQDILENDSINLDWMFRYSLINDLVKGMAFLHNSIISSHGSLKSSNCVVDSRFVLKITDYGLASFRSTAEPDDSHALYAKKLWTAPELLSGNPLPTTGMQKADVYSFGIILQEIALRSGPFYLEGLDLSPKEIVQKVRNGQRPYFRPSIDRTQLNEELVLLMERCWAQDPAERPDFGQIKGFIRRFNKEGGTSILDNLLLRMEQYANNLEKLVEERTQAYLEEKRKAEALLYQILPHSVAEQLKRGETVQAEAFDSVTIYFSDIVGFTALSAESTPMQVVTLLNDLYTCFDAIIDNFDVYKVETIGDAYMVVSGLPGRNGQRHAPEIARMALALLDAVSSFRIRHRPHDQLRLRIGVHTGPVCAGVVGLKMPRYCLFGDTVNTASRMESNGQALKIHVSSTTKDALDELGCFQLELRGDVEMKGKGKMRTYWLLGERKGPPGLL"},
  "source": "PubChem BioAssay AID1347046",
  "about": "(National Center for Advancing Translational Sciences (NCATS), 2019)",
  "note": "Values joined by “and” are separate entries in the source; they are usually repeats but may differ in a detail not shown here. Identical values can stand only once. Screen size: about 1,400 compounds; about 940 (67%) were called active. So high a share suggests a set chosen from earlier hits. The inconclusive results got no clear call from the source; some entries with a clear call stand among them for comparison. Calls follow the shape of the full dose curve. Potencies of inconclusive entries are doubtful fits and often do not repeat. Potency is read from the fitted curve at half-maximal effect.",
  "data": [
    {"target": "Atrial natriuretic peptide receptor 2 (Homo sapiens) (UniProt P20594)", "assay": "Natriuretic polypeptide receptor (hNpr2) antagonism - Subtype selectivity assay; also: nearly all actives have a fitted effect of over 70% in size", "settings": "HEK293 hNpr2 GloSensor cGMP luminescence, CNP-stimulated; series mostly up to 57.6 µM", "procedure,_shortened": "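Using HEK293 cells engineered with hNpr2 and a firefly-luciferase cGMP sensor, compounds were titrated 1:3 over several concentrations. After 30 min of exposure, cells were stimulated with 1 nM hNppC peptide, and luminescence was read 20 min later relative to baseline.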", "values": [
      {"smiles": "O=C(NCc1ccc2c(c1)OCO2)c1nc(-c2cccc(C(F)(F)F)c2)c2ccccn12", "Potency": "inactive"},
      {"smiles": "COc1nccc(N2CCC(CC(=O)N3CCCN(c4ncccn4)CC3)CC2)n1", "Potency": "inconclusive: 19.3 µM [inhibitor, partial curve]"},
      {"smiles": "COc1ccc(NC(=O)c2ccc(-c3nnc4ccc(NC(=O)C5CCC5)cn34)cc2)cc1", "Potency": "inactive"},
      {"smiles": "COc1ccc(C2Cn3nnc(-c4nc(C5CC5)no4)c3CO2)cc1", "note": "(configuration not stated)", "Potency": "inactive"},
      {"smiles": "CC1(CCCCc2ccccc2)COc2ccc(C(=O)N3CC[S+](=O)([O-])CC3)cc2N1", "note": "(configuration not stated)", "Potency": "inconclusive: 30.6 µM [inhibitor, single point]"},
      {"smiles": "COc1ccc(CN2C(=O)[C@@H]3C[C@@H](CN3C3CCCC3)Oc3ccccc32)cc1", "Potency": "inconclusive: 25 µM [inhibitor, partial curve]"},
      {"smiles": "Cc1noc2c(-c3cn[nH]c3)cc(-c3cccc(C(F)(F)F)c3)nc12", "Potency": "inactive"},
      {"smiles": "Cc1ccc(C2Cn3nnc(C(=O)N4CCN(C(=O)c5cccc(Cl)c5)CC4)c3CO2)cc1", "note": "(configuration not stated)", "Potency": "active: 21.7 µM"},
      {"smiles": "CN(Cc1noc(C2CCCC2)n1)c1cc(C2CC(O)C2)ncn1", "note": "(configuration not stated)", "Potency": "inconclusive: 27.3 µM [inhibitor, single point]"},
      {"smiles": "O=C1c2ccccc2CN1C1CCN(Cc2ccc(C(F)(F)F)cc2)CC1", "Potency": "active: 24.3 µM"},
      {"smiles": "O=C(CN1CCCc2nc(-c3ccccc3)ncc2C1=O)NCCc1c[nH]c2ccccc12", "Potency": "inconclusive: 24.3 µM [inhibitor, partial curve]"},
      {"smiles": "CC1=NS(=O)(=O)N(C)C=C1C(=O)OCc1nc(-c2ccc(C)cc2)no1", "Potency": "active: 13.7 µM"},
      {"smiles": "O=C(CCC1CCCC1)N1CCC2(CC1)CC(N(C(=O)c1ccccc1)C1CC1)CCO2", "note": "(configuration not stated)", "Potency": "inactive"},
      {"smiles": "O=C(Nc1ccc(Cl)cc1)c1nc2c(o1)CCN(Cc1ccc(F)cc1F)CC2", "Potency": "active: 8.86 µM"},
      {"smiles": "CCC1=C(C(=O)OC)C(c2ccccc2Cl)N2C(CC(=O)N(C)Cc3ccccc3)=CSC2=N1", "note": "(configuration not stated)", "Potency": "inconclusive: 24.3 µM [inhibitor, single point]"},
      {"smiles": "CCS(=O)(=O)c1ccc2oc([C@H]3CCN(Cc4cccc(Cl)c4)C3)nc2c1", "Potency": "active: 35.3 µM"},
      {"smiles": "CC(C)c1nncn1C1CCN(S(=O)(=O)c2cccc(Cl)c2)CC1", "Potency": "inconclusive: 17.2 µM [inhibitor, partial curve]"},
      {"smiles": "CC1Oc2ccc(NC(=O)c3ccc(F)cc3)cc2CN(Cc2ccc3c(c2)OCO3)C1=O", "note": "(configuration not stated)", "Potency": "inconclusive: 30.6 µM [inhibitor, single point]"},
      {"smiles": "COc1ccc(-n2nc3n(c2=O)CCN(Cc2cccn2C)C3)cc1", "Potency": "inconclusive: 38.2 µM [inhibitor, single point]"},
      {"smiles": "Cc1cn2nnc(C(=O)NCc3ccc(C(C)C)cc3)c2c(=O)[nH]1", "Potency": "inconclusive: 30.6 µM [inhibitor, single point]"},
      {"smiles": "COc1ccc(-c2cc(C[C@@H]3C[C@H](NCc4ccncc4)C3(C)C)no2)cc1", "Potency": "active: 28 µM"},
      {"smiles": "CC1=C(C(=O)OC(C)C)C(c2ccccc2F)N2C(CC(=O)N3CCCC3)=CSC2=N1", "note": "(configuration not stated)", "Potency": "inconclusive: 21.7 µM [inhibitor, partial curve]"},
      {"smiles": "O=C(NC1CC1)c1cc(-c2ccccc2F)cc2c1OCCN2Cc1cccnc1", "Potency": "inconclusive: 28 µM [inhibitor, partial curve]"},
      {"smiles": "O=C(c1nnn2c1COC(c1ccc(Cl)cc1)C2)N1CCN(C(=O)c2c(F)cccc2F)CC1", "note": "(configuration not stated)", "Potency": "inconclusive: 19.3 µM [inhibitor, partial curve]"},
      {"smiles": "O=S(=O)(c1ccccc1)N1CCCC(c2nc(CCOCC3CCCC3)no2)C1", "note": "(configuration not stated)", "Potency": "inconclusive: 38.5 µM [inhibitor, single point]"},
      {"smiles": "Cc1ccc(NC(=O)O[C@@H]2CC[C@]3(C)[C@H](CC[C@H]4OC(=O)C[C@H]43)[C@]2(C)CO)cc1", "Potency": "inconclusive: 39.6 µM [inhibitor, partial curve]"},
      {"smiles": "O=C(Cc1ccc(F)cc1)N1CCN(c2cc(-c3ccc(Cl)cc3)[nH]n2)CC1", "Potency": "inconclusive: 34.3 µM [inhibitor, single point]"},
      {"smiles": "CC(C)CCN1CCC(N2CCN(S(=O)(=O)c3ccc4c(c3)CCCC4)CC2)C1=O", "note": "(configuration not stated)", "Potency": "inactive"},
      {"smiles": "CC(C)Oc1ccc(CNC(=O)c2cc3n(n2)CC(c2ccc(Cl)cc2)OC3)cc1", "note": "(configuration not stated)", "Potency": "inactive"},
      {"smiles": "O=C(NC1CCCCCC1)c1csc(N2CCN(c3ccccc3)CC2)n1", "Potency": "inconclusive: 30.6 µM [inhibitor, single point]"},
      {"smiles": "CC(C)N1CCN(C(=O)c2cc3n(n2)CC(c2ccc(Br)cc2)OC3)CC1", "note": "(configuration not stated)", "Potency": "inconclusive: 27.3 µM [inhibitor, single point]"},
      {"smiles": "CC1=C(C(=O)OC(C)C)C(c2ccccc2C)N2C(CC(=O)NCC3CC3)=CSC2=N1", "note": "(configuration not stated)", "Potency": "inconclusive: 21.7 µM [inhibitor, partial curve]"},
      {"smiles": "CN1C[C@@H](NC(=O)CC(C)(C)C)C[C@H]1c1nc(-c2ccc3c(c2)OCO3)no1", "Potency": "inconclusive: 35.3 µM [inhibitor, partial curve]"},
      {"smiles": "O=C(Nc1ccccc1)c1cc2n(n1)CC(c1ccc(Br)cc1)OC2", "note": "(configuration not stated)", "Potency": "inconclusive: 21.7 µM [inhibitor, partial curve, poor fit]"},
      {"smiles": "O=C(c1ccc(F)c(Cl)c1)N1CCC(Cc2nc(-c3cnccn3)no2)CC1", "Potency": "inconclusive: 19.3 µM [inhibitor, partial curve]"},
      {"smiles": "COc1ccc(S(=O)(=O)N2CCC3(CC2)CC(N(C)Cc2ccccc2)CCO3)cc1", "note": "(configuration not stated)", "Potency": "inconclusive: 24.3 µM [inhibitor, partial curve]"},
      {"smiles": "CC1=C[C@@H](CN2CCOCC2)[C@H](C(C)C)C[C@H]1Cc1nnc(-c2ccncc2)o1", "Potency": "inactive"},
      {"smiles": "O=C(Cc1ccc(F)cc1)N1CCN(C(=O)c2nnn3c2COC(c2ccc(Cl)cc2)C3)CC1", "note": "(configuration not stated)", "Potency": "inconclusive: 24.3 µM [inhibitor, partial curve]"},
      {"smiles": "COc1ccc(C(=O)NC2CCN(c3cc(-c4ccc(F)cc4)[nH]n3)CC2)c(C)c1", "Potency": "inconclusive: 34.3 µM [inhibitor, single point]"},
      {"smiles": "CC(C)(C)CC(=O)N[C@H]1C[C@@H](Cc2cc(CN3CCN(c4ccccc4)CC3)on2)C1(C)C", "Potency": "active: 3.43 µM"},
      {"smiles": "FC(F)(F)c1ccc(CN2CCC3(CC2)CC(c2cccnc2)=NO3)cc1", "Potency": "active: 8.62 µM and active: 10.9 µM"},
      {"smiles": "COc1ccc(-c2nnc(C[C@@H]3C[C@@H](C(C)C)[C@H](CNC(=O)c4ccc(F)cc4)C=C3C)o2)cc1", "Potency": "inactive"},
      {"smiles": "O=C(c1ccc2[nH]ccc2c1)N1CCN(c2cc(-c3ccccc3)[nH]n2)CC1", "Potency": "inconclusive: 19.3 µM [inhibitor, partial curve]"},
      {"smiles": "O=C1COc2ccc(-c3ccoc3)nc2CN1Cc1ccccc1", "Potency": "inconclusive: 44.4 µM [inhibitor, single point]"},
      {"smiles": "COc1ccc(CN2CCc3nc(C(=O)NCCOc4ccccc4)oc3CC2)cn1", "Potency": "inconclusive: 44.4 µM [inhibitor, single point]"},
      {"smiles": "O=C(C1CC1)N1CCC(n2cc(-c3nc(-c4ccccc4)no3)nn2)CC1", "Potency": "inconclusive: 24.3 µM [inhibitor, partial curve]"},
      {"smiles": "O=C(NC1CCCc2c1cnn2-c1ccc(F)cc1F)c1ccsc1", "note": "(configuration not stated)", "Potency": "active: 19.3 µM"},
      {"smiles": "COc1ncccc1CN1CCC2(CC1)OC(=O)N(Cc1ccc(O)cc1)C2(C)c1ccccc1", "note": "(configuration not stated)", "Potency": "inconclusive: 19.3 µM [inhibitor, partial curve]"},
      {"smiles": "Cc1nn2c(c1-c1ccccc1Oc1ccccc1)N(Cc1ccc(C(=O)O)cc1)CCC2", "Potency": "inconclusive: 35.3 µM [inhibitor, partial curve, poor fit]"},
      {"smiles": "Cc1nn(C)cc1C(C)NC(=O)CN1CCCc2nc(-c3ccccc3)ncc2C1=O", "note": "(configuration not stated)", "Potency": "inactive"},
      {"smiles": "Cc1ccc(C2Cn3nnc(-c4noc(-c5ccoc5)n4)c3CO2)cc1", "note": "(configuration not stated)", "Potency": "inconclusive: 24.3 µM [inhibitor, partial curve]"},
      {"smiles": "COc1ccc(CC(=O)N2CCCN(c3cc(-c4ccc(OC)cc4)[nH]n3)CC2)cc1", "Potency": "inconclusive: 24.3 µM [inhibitor, partial curve]"},
      {"smiles": "COc1cccc(-c2cc(C3CCN(C(=O)c4ccc(Br)cc4)CC3)[nH]n2)c1", "Potency": "inconclusive: 21.7 µM [inhibitor, partial curve]"},
      {"smiles": "COc1ccc(C(=O)NC2CCCN(c3cc(-c4ccc(Cl)cc4)[nH]n3)C2)c(C)c1", "note": "(configuration not stated)", "Potency": "inconclusive: 30.6 µM [inhibitor, single point]"},
      {"smiles": "Cc1nc2cccnc2n1CC1CCCN(S(=O)(=O)c2ccc(C(C)C)cc2)C1", "note": "(configuration not stated)", "Potency": "inconclusive: 24.3 µM [inhibitor, partial curve]"},
      {"smiles": "CCc1noc(CC2CCOC3(CCN(S(=O)(=O)c4cccc(Cl)c4)CC3)C2)n1", "note": "(configuration not stated)", "Potency": "inconclusive: 21.7 µM [inhibitor, partial curve]"},
      {"smiles": "COc1ccc(C(=O)N2CCC3(CC2)N=C(c2cccc(Br)c2)NO3)c(OC)c1", "Potency": "active: 24.3 µM"},
      {"smiles": "COc1cc(CN2CCC(C)(c3noc(C4CCOCC4)n3)CC2)cc(OC)c1", "Potency": "inconclusive: 19.3 µM [inhibitor, partial curve]"},
      {"smiles": "O=C(NCc1ccccc1)c1csc(N2CCN(c3ccc(Cl)cc3)CC2)n1", "Potency": "active: 21.7 µM"},
      {"smiles": "COc1cccc(NC(=O)c2ccc(-c3nnc4ccc(NC(=O)C5CCC5)cn34)cc2)c1", "Potency": "inconclusive: 21.7 µM [inhibitor, partial curve]"},
      {"smiles": "Cc1cc(=O)n(CC(=O)Nc2ccc(Br)cc2F)c(N2CCc3ccccc3C2)n1", "Potency": "inconclusive: 38.5 µM [inhibitor, single point]"},
      {"smiles": "O=C1NCCCCCCN(Cc2cccc(F)c2)[C@H]2C[C@H](C(=O)N3CCc4ccccc4C3)C[C@@H]12", "Potency": "inconclusive: 27.3 µM [inhibitor, partial curve, poor fit]"}
    ]}
  ]
}
